US20220339289A1 (Bicycle, published 2022)
Results are given in words; binding and its absence hold for the method and conditions named. Some results given as binding are weak or reduced against the parent protein; the word gives no strength.

Sequences of proteins named here, by UniProt entry; tags and fusion partners are left off. Residues count along the entry.
UniProt P16109, residues 42-771: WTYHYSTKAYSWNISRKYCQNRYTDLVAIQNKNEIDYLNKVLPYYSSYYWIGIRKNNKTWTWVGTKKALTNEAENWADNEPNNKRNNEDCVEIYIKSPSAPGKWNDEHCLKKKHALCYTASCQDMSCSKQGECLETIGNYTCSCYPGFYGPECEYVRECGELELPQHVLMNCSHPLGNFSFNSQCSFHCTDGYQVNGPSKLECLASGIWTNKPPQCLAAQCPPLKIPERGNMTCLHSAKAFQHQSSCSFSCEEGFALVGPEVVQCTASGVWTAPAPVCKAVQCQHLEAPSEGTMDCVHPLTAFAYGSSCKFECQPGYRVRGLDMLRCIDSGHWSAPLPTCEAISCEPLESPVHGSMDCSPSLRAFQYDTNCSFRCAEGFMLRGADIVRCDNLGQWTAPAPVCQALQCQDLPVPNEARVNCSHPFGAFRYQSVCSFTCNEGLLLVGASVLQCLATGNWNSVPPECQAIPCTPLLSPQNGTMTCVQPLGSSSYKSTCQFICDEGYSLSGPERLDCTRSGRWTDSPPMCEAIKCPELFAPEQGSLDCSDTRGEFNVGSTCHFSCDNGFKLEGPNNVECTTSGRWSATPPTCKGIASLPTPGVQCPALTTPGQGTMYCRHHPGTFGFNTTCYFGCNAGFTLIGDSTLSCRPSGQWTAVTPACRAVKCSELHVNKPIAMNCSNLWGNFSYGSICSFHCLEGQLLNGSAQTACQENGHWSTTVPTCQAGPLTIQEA

Target: Recombinant biotinylated human P-Selectin protein (human) (UniProt P16109)
Test: SPR (Table 6)

Row | binding | Binder
1 | binds | CYMEWCDVTDYGC (N-terminal acetyl (Ac); Ci, Cii and Ciii cyclised on the TATA scaffold) [BCY9717]
2 | binds | ACDADWCDVPSLPCA (Ci, Cii and Ciii cyclised on the TCAZ scaffold) [BCY11648]
